The record followed here is article PMC2553837.

Residue numbers refer to the chain shown, from its start. These are yes or no findings as the source states them, for the method shown. For some of these results: Binding calls can cover weak binding; strength is not graded here. For some of these results: Sequences can lack the tags named with a protein.

The target in assay [1] is T1, LexA-XA21K668 (rice (Oryza sativa)) (UniProt Q1MX30).
T1 sequence: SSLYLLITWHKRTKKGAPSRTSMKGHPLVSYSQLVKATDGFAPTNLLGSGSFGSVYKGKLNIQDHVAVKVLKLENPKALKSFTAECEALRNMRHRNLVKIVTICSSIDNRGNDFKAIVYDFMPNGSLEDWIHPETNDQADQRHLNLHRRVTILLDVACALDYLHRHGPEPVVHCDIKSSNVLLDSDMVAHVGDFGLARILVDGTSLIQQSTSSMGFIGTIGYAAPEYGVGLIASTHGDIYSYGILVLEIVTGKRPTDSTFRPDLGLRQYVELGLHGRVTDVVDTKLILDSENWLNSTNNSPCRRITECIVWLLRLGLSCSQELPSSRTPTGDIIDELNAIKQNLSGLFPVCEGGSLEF
Put plainly: two-hybrid; Matchmaker LexA system, yeast pEGY48/p8op-LacZ; LexA-XA21 variants as bait, AD-XB15 as prey; lacZ reporter.

The target of assay [2] is T2, LexA-XA21K668^S686A (rice (Oryza sativa)) (UniProt Q1MX30).
T2 sequence: T1 sequence with S19A
The assay is described as above.

The target in assay [3] is T3, LexA-XA21K668^S686A,T688A,S689A (rice (Oryza sativa)) (UniProt Q1MX30).
T3 sequence: T1 sequence with S19A, T21A, S22A
Described as above.

Assay [4] deals with T4, LexA-XA21K668^K736E (rice (Oryza sativa)) (UniProt Q1MX30).
T4 sequence: T1 sequence with K69E
The assay is described as above.

Assay [5] addresses T5, LexA-XA21K668^T688A (rice (Oryza sativa)) (UniProt Q1MX30).
T5 sequence: T1 sequence with T21A
Described as above.

For assay [6], the target named is T6, LexA-XA21K(TDG) (rice (Oryza sativa)) (UniProt Q1MX30).
T6 sequence: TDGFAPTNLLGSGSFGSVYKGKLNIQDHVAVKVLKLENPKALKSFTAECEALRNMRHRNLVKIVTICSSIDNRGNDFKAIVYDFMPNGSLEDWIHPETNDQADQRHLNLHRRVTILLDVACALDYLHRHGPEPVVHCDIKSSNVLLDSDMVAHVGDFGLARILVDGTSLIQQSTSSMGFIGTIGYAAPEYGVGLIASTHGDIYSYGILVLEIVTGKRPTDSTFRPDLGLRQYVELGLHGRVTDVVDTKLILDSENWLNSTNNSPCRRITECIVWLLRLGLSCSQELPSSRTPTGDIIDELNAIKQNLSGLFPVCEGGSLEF
The description is as above.

In assay [7] the target is T7, LexA-XA21K668^S697A (rice (Oryza sativa)) (UniProt Q1MX30).
T7 sequence: T1 sequence with S30A
The assay is described as above.

The target of assay [8] is T8, LexA-XA21K668^S689A (rice (Oryza sativa)) (UniProt Q1MX30).
T8 sequence: T1 sequence with S22A
Described as above.

The target of assay [9] is T9, XA21K668 (bait of the GAL4-based yeast two-hybrid screen) (rice (Oryza sativa)) (UniProt Q1MX30).
T9 sequence: T1 sequence
Put plainly: two-hybrid; GAL4-based screen of a rice (IRBB21) cDNA library with XA21K668 as bait; growth without histidine and beta-galactosidase activity; 7 x 10^7 transformants.

Assay [10] has as its target T10, GST-XA21K668 (rice (Oryza sativa)) (UniProt Q1MX30).
T10 sequence: T1 sequence
Nature of the assay: pull-down; GST-XA21K668 or GST (20 ug) on glutathione-sepharose beads, HIS-XB15ΔN in solution; 20 mM Tris pH 7.5, 150 mM NaCl, 2 mM MgCl2, 0.5 mM dithiothreitol; 2 h at 4 °C; blot with anti-HIS; both purified.

Take “AD-XB15 (pAD-GAL4 containing full length of Xb15) (rice (Oryza sativa))”: the binding entry in [1] is “binds”; in assay [2] it was “binds”; in assay [3], “binds”; in assay [4], “no binding”; in assay [5], “binds”; in [6], “no binding”. The binding entry in assay [7] is listed as “no binding”; in [8], “binds”; in [9], “binds”.

In the case of “HIS-XB15ΔN (rice (Oryza sativa)) (domain or fragment)”, the binding entry in assay [10] is on record as “binds”.
